# Experimental data published in PubChem BioAssay AID445 (National Center for Advancing Translational Sciences (NCATS), 2006).
# The other results are listed elsewhere or left out. Further columns of the screen follow, without active or inactive calls. Most of these compounds were active or inconclusive in the main read-out, so they are no random draw. Potencies come from curve fits of mixed quality, noted in brackets.
# Assay: IkB Signaling
# Conditions: ABC-DLBCL IkBa-CBG/CBR dual luciferase ratio (green luciferase fused to IkBa over red control in OCI-Ly3 lymphoma cells), 4 h
# How it was run: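 In this assay, an IκBα–CBG68 fusion accumulates when IKK-driven degradation is blocked; native CBR normalizes for cell number. OCI-Ly3 cells were treated 4 h with compound and doxycycline, then green and red light read after Chroma-Glo addition.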
# [1] = measured here: control luc red channel unless noted
structure (smiles),measurement,setting,value
CCC(=O)Oc1c(Sc2ccc(Cl)cc2)c(C)nn1C(C)(C)C,AC50,[1],"10 µM [falling, partial curve]"
O=C(CC(SCCO)c1ccc2c(c1)OCO2)c1cccs1 (centres undefined),AC50,measured here: IkB-luc green channel,"20 µM [rising, partial curve]"
same,AC50,measured here: control luc red channel,"25.1 µM [falling, single point]"
COc1ccc(N(C(=O)COc2c(C)cccc2C)S(=O)(=O)c2ccc(Cl)cc2)cc1,AC50,[1],"7.94 µM [falling, full curve]"
Cc1ccccc1C(=O)NCC(c1cccnc1)N1CCc2ccccc21 (centres undefined),AC50,[1],"39.8 µM [falling, single point]"
CCOC(=O)c1c(C)sc(-c2c(-c3ccc4c(c3)OCCO4)[nH]c3c2c(=O)[nH]c(=O)n3C)c1O,AC50,[1],"20 µM [falling, single point]"
CCOC(=O)C1CCN(C(=O)c2cc3cc4cc(OC)ccc4nc3o2)CC1,AC50,[1],"0.0316 µM [falling, full curve]"
Cc1ccc(-c2nnc(Nc3ccc(O)cc3)c3ccccc23)cc1S(=O)(=O)NCc1nc2ccccc2[nH]1,AC50,[1],"3.98 µM [falling, partial curve]"
COc1cccc(-n2c(=O)c3sc4ccccc4c3n(CC(=O)Nc3ccc(F)cc3F)c2=O)c1,AC50,[1],"6.31 µM [falling, partial curve]"
COc1cc(NC(=O)CSc2nc(C)c(C(=O)Nc3ccccc3)c(-c3ccc(OC)c(OC)c3)c2C#N)c(OC)cc1Cl,AC50,[1],"7.94 µM [falling, partial curve]"
CC(C)CN(CCCNC(=O)CN1C(=O)COc2ccc(S(=O)(=O)N3CCCCCC3)cc21)CC(C)C,AC50,[1],"0.2 µM [rising, full curve]"
Cc1ccc(Cl)cc1N1CCN(CCCNc2ncnc3onc(-c4ccc(F)cc4)c23)CC1,AC50,[1],"10 µM [falling, partial curve]"
CCOCCCn1c(=N)c(S(=O)(=O)c2ccc(C)cc2)cc2c(=O)n3ccccc3nc21,AC50,[1],"0.316 µM [rising, full curve]"
COc1ccc2nc3sc(C(=O)Nc4cc(Cl)c(OC)cc4OC)cc3cc2c1,AC50,[1],"12.6 µM [rising, partial curve] [measured here: IkB-luc green channel]"
CCN1CCN(Cc2c(O)ccc3c(=O)c(Oc4ccccc4Cl)c(C(F)(F)F)oc23)CC1,AC50,[1],"3.16 µM [falling, full curve, poor fit]"
CCOC(=O)c1c(C)oc2nc(C)nc(NCc3ccc(C)cc3)c12,AC50,[1],"0.0126 µM [falling, full curve]"
CCOCCCn1c(=N)c(C(=O)NCc2ccco2)cc2c(=O)n3ccccc3nc21,AC50,[1],"0.158 µM [rising, full curve, poor fit]"
Cc1ccc(-c2nnc(Nc3ccc(Cl)cc3)c3ccccc23)cc1S(=O)(=O)N1CCOCC1,AC50,[1],"3.98 µM [falling, partial curve, poor fit]"
COc1ccc(CNC(=O)CCc2nc3cccnc3n2Cc2ccccc2)cc1,AC50,[1],"0.0251 µM [falling, full curve]"
Cc1cccc(N2CCN(C(=O)c3c(C)oc4nc(C)nc(N5CCCC5)c34)CC2C)c1 (centres undefined),AC50,[1],"0.0501 µM [falling, full curve, poor fit]"
Cc1ccc(-n2ncc3c(Nc4cccc(C)c4)ncnc32)cc1,AC50,[1],"0.316 µM [rising, full curve]"
O=C(c1cc(-c2ccc(Cl)c(Cl)c2)on1)N1CCN(c2ccccc2)CC1,AC50,[1],"0.158 µM [falling, full curve]"
COc1ccc(NC(=O)c2ccc3c(c2)c(C)c(C)n3Cc2ccc(F)cc2)c(OC)c1,AC50,[1],"7.94 µM [rising, full curve, poor fit]"
COc1ccc(-c2nn3c(-c4ccc(C)cc4)nnc3c3ccccc23)cc1,AC50,[1],"39.8 µM [falling, single point]"
COc1cccc(CN2C(=O)c3ccccc3Sc3ccc(C(=O)NCCc4ccc(Cl)cc4)cc32)c1,AC50,[1],"12.6 µM [falling, partial curve]"
O=C(CSc1ncn(-c2ccccc2)n1)Nc1nc2c(s1)CCCC2,AC50,[1],"25.1 µM [falling, single point]"
CCc1ccc(OCC(=O)N(Cc2ccco2)Cc2ccco2)cc1,AC50,[1],"31.6 µM [falling, single point]"
O=C(c1cc(-c2ccccc2)nc2ccccc12)N1CCN(c2ccccn2)CC1,AC50,[1],"12.6 µM [falling, partial curve]"
COc1ccccc1NC(=O)CCn1nc(-c2ccccc2)c2ccccc2c1=O,AC50,[1],"31.6 µM [falling, partial curve]"
Cc1cc(C)cc(OCc2cc(=O)n3cc(C)sc3n2)c1,AC50,[1],"12.6 µM [falling, partial curve]"
CN(C(=O)c1ccc2c(c1)N(Cc1ccccc1F)C(=O)c1ccccc1S2)C1CCCCC1,AC50,[1],"15.8 µM [falling, partial curve]"
CCCN1CCN(CCCNC(=O)c2ccc3c(c2)sc2nc(-c4ccc(C)cc4)cn23)CC1,AC50,[1],"20 µM [falling, single point]"
COc1ccccc1N1CCN(c2nc3ccc(C)cc3nc2-n2nc(C)cc2C)CC1,AC50,[1],"39.8 µM [falling, single point]"
CCOC(=O)c1c(C)n(-c2ccccc2)c2ccc(OC(=O)c3ccc(OCC)c(OCC)c3)cc12,AC50,[1],"0.0398 µM [rising, full curve, poor fit]"
Cc1nn(-c2nc3ccccc3s2)c(N)c1-c1ccccc1,AC50,[1],"0.0794 µM [falling, full curve, poor fit]"
O=C(C1CCCN(S(=O)(=O)c2ccccc2)C1)N1CCCc2ccccc21 (centres undefined),AC50,[1],"31.6 µM [falling, single point]"
COc1ccc(-c2nnc(NC(=O)c3ccc(S(=O)(=O)N4COCC4(C)C)cc3)o2)cc1,AC50,[1],"7.94 µM [falling, partial curve]"
COc1ccccc1-c1cc(NC(=O)COc2ccccc2Cl)n(-c2ccccc2)n1,AC50,[1],"10 µM [rising, partial curve]"
Cc1ccc(C)c(CN2C(=O)c3ccccc3Sc3ccc(C(=O)NCc4cccs4)cc32)c1,AC50,[1],"12.6 µM [falling, partial curve]"

# In a second layout: results already given.
structure (smiles)	measurement	setting	value
CCOC(=O)c1c(C)n(-c2ccccc2)c2ccc(OC(=O)c3ccc(OCC)c(OCC)c3)cc12	AC50	[1]	0.0398 µM [rising, full curve, poor fit]
Cc1nn(-c2nc3ccccc3s2)c(N)c1-c1ccccc1	AC50	[1]	0.0794 µM [falling, full curve, poor fit]
O=C(C1CCCN(S(=O)(=O)c2ccccc2)C1)N1CCCc2ccccc21 (centres undefined)	AC50	[1]	31.6 µM [falling, single point]
